Record: PubChem BioAssay AID1159578 (Peter MacCallum Cancer Centre, 2015)
Shown is a random part of about 18,000 reagents. Over the whole deposit, about 1,030 (5.7%) are marked active. 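Inactive calls also include pools with fewer than 3300 nuclei, whose migration was not assessed.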 Raw values are not corrected between plates. Not all columns of the deposit are shown.

- Test: 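Knock-downs that alter how fast lymphatic endothelial cells migrate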 (primary screen)
- Cell system: human lymphatic endothelial cells
- Reagents: siRNA pool against human genes, 40 nM
- Duration: 48 h after transfection
- Read-out: 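Cells stained with dye and imaged after a scratch; covered wound area and nuclei counted, duplicates averaged, migration set against mock wells and turned into a robust z-score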
- Reading the numbers: migration robust z-score: higher = faster migration into the scratch; nuclei per well: higher = more cells in the well
- Call rule: 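Pools averaging fewer than 3300 nuclei are never called; remaining pools count as changed when migration robust z lies outside -2 to 2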
- Meaning of the calls: active = migration changed; inactive = no migration change, or too few cells

| gene | migration robust z-score | migration class with cell-count check | nuclei per well, duplicate mean | call |
| --- | --- | --- | --- | --- |
| VCX3B (GeneID 425054) | 1.27 | migration z between -2 and 2; enough cells | 6967 | inactive |
| SRGN (GeneID 5552) | 0.76 | migration z between -2 and 2; enough cells | 5054 | inactive |
| SPPL2A (GeneID 84888) | 0.36 | migration z between -2 and 2; enough cells | 5479 | inactive |
| BIVM (GeneID 54841) | 1.98 | migration z between -2 and 2; enough cells | 6420 | inactive |
| BACH1 (GeneID 571) | 0.91 | migration z between -2 and 2; enough cells | 4790 | inactive |
| WASL (GeneID 8976) | 0.86 | migration z between -2 and 2; enough cells | 5470 | inactive |
| ADAM7 (GeneID 8756) | 0.2 | migration z between -2 and 2; enough cells | 5978 | inactive |
| LRIF1 (GeneID 55791) | -0.08 | migration z between -2 and 2; enough cells | 7401 | inactive |
| TSEN54 (GeneID 283989) | -0.97 | migration z between -2 and 2; enough cells | 5818 | inactive |
| CACNA1F (GeneID 778) | 0.57 | migration z between -2 and 2; enough cells | 5738 | inactive |
| UBALD2 (GeneID 283991) | -0.69 | migration z between -2 and 2; enough cells | 6051 | inactive |
| TNK1 (GeneID 8711) | -2.1 | migration z below -2; enough cells | 3440 | active |
| BRDT (GeneID 676) | -0.28 | migration z between -2 and 2; enough cells | 6562 | inactive |
| RIBC2 (GeneID 26150) | -0.53 | migration z between -2 and 2; enough cells | 6124 | inactive |

Next part, starting with the last 4 of the part before.
| gene | migration robust z-score | migration class with cell-count check | nuclei per well, duplicate mean | call |
| --- | --- | --- | --- | --- |
| UBALD2 (GeneID 283991) | -0.69 | migration z between -2 and 2; enough cells | 6051 | inactive |
| TNK1 (GeneID 8711) | -2.1 | migration z below -2; enough cells | 3440 | active |
| BRDT (GeneID 676) | -0.28 | migration z between -2 and 2; enough cells | 6562 | inactive |
| RIBC2 (GeneID 26150) | -0.53 | migration z between -2 and 2; enough cells | 6124 | inactive |
| SDR42E1 (GeneID 93517) | 1.04 | migration z between -2 and 2; enough cells | 6140 | inactive |
| STAT3 (GeneID 6774) | 1.01 | migration z between -2 and 2; enough cells | 6512 | inactive |
| OR4D6 (GeneID 219983) | -0.39 | migration z between -2 and 2; enough cells | 5348 | inactive |
| TRIM16L (GeneID 147166) | 1.6 | migration z between -2 and 2; enough cells | 5706 | inactive |
| PIK3CB (GeneID 5291) | -1.4 | migration z between -2 and 2; enough cells | 4495 | inactive |
| TBCC (GeneID 6903) | 1.47 | migration z between -2 and 2; enough cells | 5398 | inactive |
| MACROH2A2 (GeneID 55506) | -0.37 | migration z between -2 and 2; enough cells | 5615 | inactive |
| APRG1 (GeneID 339883) | 1.55 | migration z between -2 and 2; enough cells | 6048 | inactive |
| ZNHIT1 (GeneID 10467) | 1 | migration z between -2 and 2; enough cells | 5864 | inactive |
| EPOR (GeneID 2057) | -2.88 | migration z below -2; enough cells | 4359 | active |
| UBE2G2 (GeneID 7327) | 2.33 | migration z above 2; enough cells | 5719 | active |
| ZNF536 (GeneID 9745) | 0.64 | migration z between -2 and 2; enough cells | 4314 | inactive |
| FAAP24 (GeneID 91442) | 1.75 | migration z between -2 and 2; enough cells | 7071 | inactive |
| UBE2L3 (GeneID 7332) | 0.99 | migration z between -2 and 2; enough cells | 5147 | inactive |
| WDR20 (GeneID 91833) | 0.06 | migration z between -2 and 2; enough cells | 5586 | inactive |
| MYOM2 (GeneID 9172) | -0.05 | migration z between -2 and 2; enough cells | 5795 | inactive |
| POLR3G (GeneID 10622) | -0.08 | migration z between -2 and 2; enough cells | 4864 | inactive |
| ADAMTS15 (GeneID 170689) | -1.35 | migration z between -2 and 2; enough cells | 5400 | inactive |
| KRTAP4-11 (GeneID 653240) | -0.46 | migration z between -2 and 2; enough cells | 5270 | inactive |
| LEKR1 (GeneID 389170) | -0.64 | migration z between -2 and 2; enough cells | 6486 | inactive |
| GSDMA (GeneID 284110) | 0.95 | migration z between -2 and 2; enough cells | 5967 | inactive |
| AURKB (GeneID 9212) | 0.65 | migration z between -2 and 2; enough cells | 5393 | inactive |
| SULF2 (GeneID 55959) | 0.13 | migration z between -2 and 2; enough cells | 5819 | inactive |
| CCDC93 (GeneID 54520) | 1.15 | migration z between -2 and 2; enough cells | 5510 | inactive |
| GCNT4 (GeneID 51301) | 0 | migration z between -2 and 2; enough cells | 5445 | inactive |
